One assay concerns the target CD123 on MV411 cells (UniProt P26951). The assay can be described thus: analytical cytometry on MV411 cells, detected with an anti-kappa secondary antibody.
The target in another assay is T1, CD20 on Raji cells (UniProt P11836).
T1 sequence (looked up): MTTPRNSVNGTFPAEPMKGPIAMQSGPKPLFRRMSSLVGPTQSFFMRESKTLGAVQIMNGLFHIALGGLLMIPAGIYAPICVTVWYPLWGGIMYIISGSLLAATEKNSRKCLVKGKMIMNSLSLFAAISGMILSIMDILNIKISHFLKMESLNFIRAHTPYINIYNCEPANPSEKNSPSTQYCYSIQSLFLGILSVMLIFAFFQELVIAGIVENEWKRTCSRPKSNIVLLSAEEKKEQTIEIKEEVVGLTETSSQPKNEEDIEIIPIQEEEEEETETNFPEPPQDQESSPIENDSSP
The assay can be described thus: analytical cytometry on Raji cells, detected with an anti-kappa secondary antibody.

Chains of the proteins cited; added tags and fusions are not shown. Residues count along the entry.
UniProt P26951, residues 19-378: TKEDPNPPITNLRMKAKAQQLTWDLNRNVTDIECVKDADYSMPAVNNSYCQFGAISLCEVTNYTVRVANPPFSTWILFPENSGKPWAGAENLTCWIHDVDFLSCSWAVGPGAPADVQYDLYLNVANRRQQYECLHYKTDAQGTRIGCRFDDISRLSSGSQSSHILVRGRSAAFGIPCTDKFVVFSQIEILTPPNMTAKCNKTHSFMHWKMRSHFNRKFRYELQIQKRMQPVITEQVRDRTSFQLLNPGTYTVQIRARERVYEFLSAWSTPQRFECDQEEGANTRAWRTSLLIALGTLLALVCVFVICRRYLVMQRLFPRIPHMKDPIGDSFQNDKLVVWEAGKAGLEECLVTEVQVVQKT

Our source for the binding values is patent US20210061922A1.

No constants are given. Whether binding was seen depends on the method and setting. Some binding calls cover weakened binding; strength is not graded here.

B1: Trispecific antibody from FIG. 13: anti-CD33-LC/anti-CD20/anti-CD123/anti-CD33-HC Fab loop (protein)
chain: DIQMTQSPSILSASVGDRVTITCRASESVDNYGISFMNWFQQRTNKAPRLLIYAASNQGSGVPSRFSGSGSGTDFTLTISSLQPDDEADYYCQQSKEVPWTFGAGTKLEIKRTVAAPSVFIFPPSDEQLKSGTASVVCLLNNFYPREAKVQWKVDNALQSGNSQESVTEQDSKDSTYSLSSTLTLSKADYEKHKVYACEVTHQGLSSPVTKSFNRGEGGGSSGEVQLVESGGGLVQAGGSLRLSCAASGSIFSGNVMGWYRRQAPGKEREWVAAIASGGSIYYRDSVKGRFTISRDNAKNTVYLQMNSLKPEDTAVYYCNSHPPTLPYWGLGTQVTVSSGSEVQLVESGGGLVQPGGSLRLSCTFSGGTFSSYTMGWFRQAPGKEREFVAEVRWGGVTTYSNSLKDRFSISEDSVKNAVYLQMNSLKPEDTAVYYCAAVRQMYMTVVPDYWGQGTLVTVSSGGGSSGEVQLVQSGAEVKKPGSSVKVSCKASGYTFTDYNMHWVRQSPGQGLEWIGYIYPYNGGTGYNQKFKSKATITADESTNTAYMELSSLRSEDTAIYYCARGRPAMDYWGQGTLVTVSSASTKGPSVFPLAPSSKSTSGGTAALGCLVKDYFPEPVTVSWNSGALTSGVHTFPCVLQSSGLYSLSSVVTVPSSSLGTQTYICNVNHKPSNTKVDKKVEPKSGDKTHT
Turning to B1, the binding entry in the assay with CD123 on MV411 cells and with CD20 on Raji cells was “binds” throughout.
